The target in assay [1] is HA-mGlu3 (mGlu3 receptor bearing an HA tag in the extracellular N-terminal domain) (UniProt P31422). Kind of assay: co-IP.
Assay [2] concerns the target HA-tagged mGlu2 receptor (UniProt P31421). Briefly: co-IP.
Assay [3] deals with HA-tagged mGlu7 receptor (UniProt P35400). Briefly: co-IP.
The target of assay [4] is T1, mGlu3-SSL peptide (synthetic peptide of the C-terminal domain of the mGlu3 receptor, wild type) (mouse).
T1 sequence (peptide): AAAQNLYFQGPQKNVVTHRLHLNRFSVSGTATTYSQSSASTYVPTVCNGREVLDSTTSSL
Briefly: pull-down.

Sequences of proteins named here, by UniProt entry; tags and fusion partners are left off. Residues count along the entry.
UniProt P31422, residues 23-879: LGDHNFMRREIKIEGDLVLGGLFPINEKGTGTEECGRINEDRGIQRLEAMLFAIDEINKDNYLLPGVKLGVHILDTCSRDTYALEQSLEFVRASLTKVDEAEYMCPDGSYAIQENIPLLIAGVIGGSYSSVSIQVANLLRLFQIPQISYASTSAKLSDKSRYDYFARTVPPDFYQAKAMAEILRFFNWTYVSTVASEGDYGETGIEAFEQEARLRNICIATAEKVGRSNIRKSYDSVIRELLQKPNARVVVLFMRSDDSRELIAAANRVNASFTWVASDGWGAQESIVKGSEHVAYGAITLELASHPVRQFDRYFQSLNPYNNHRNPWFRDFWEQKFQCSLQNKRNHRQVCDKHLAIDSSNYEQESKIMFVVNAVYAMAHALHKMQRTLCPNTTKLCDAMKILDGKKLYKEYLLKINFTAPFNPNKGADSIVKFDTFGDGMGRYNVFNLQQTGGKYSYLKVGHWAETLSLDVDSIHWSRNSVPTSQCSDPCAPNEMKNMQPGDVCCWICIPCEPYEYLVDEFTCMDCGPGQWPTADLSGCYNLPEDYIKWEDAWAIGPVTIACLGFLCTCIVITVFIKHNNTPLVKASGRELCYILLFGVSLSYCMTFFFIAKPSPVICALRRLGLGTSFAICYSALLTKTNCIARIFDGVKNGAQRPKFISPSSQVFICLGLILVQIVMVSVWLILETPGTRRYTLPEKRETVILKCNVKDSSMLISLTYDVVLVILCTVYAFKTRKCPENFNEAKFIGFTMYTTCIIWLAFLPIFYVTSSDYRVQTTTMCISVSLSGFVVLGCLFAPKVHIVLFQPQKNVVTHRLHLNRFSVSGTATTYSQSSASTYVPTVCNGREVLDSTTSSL
UniProt P31421, residues 19-872: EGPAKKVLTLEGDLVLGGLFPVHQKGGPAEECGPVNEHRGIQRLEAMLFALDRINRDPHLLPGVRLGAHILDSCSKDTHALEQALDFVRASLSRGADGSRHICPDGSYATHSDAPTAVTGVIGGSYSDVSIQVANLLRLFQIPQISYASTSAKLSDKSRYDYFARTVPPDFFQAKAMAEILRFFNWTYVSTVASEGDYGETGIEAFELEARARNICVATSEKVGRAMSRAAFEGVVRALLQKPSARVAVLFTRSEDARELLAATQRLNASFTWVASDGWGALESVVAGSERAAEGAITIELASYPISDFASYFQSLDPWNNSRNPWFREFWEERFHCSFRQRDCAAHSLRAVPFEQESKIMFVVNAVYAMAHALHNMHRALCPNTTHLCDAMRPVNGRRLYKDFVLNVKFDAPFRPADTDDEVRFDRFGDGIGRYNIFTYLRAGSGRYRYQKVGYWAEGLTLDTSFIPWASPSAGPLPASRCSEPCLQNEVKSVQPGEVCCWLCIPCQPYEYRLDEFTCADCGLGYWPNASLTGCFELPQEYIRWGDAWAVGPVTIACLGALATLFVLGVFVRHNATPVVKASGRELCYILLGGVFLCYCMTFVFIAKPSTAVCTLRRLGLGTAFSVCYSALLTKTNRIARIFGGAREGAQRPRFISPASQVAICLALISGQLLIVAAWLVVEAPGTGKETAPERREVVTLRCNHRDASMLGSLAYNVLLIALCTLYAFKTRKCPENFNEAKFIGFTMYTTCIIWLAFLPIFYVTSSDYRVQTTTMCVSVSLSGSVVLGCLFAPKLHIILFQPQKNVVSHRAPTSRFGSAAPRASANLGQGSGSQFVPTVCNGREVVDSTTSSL
UniProt P35400, residues 35-915: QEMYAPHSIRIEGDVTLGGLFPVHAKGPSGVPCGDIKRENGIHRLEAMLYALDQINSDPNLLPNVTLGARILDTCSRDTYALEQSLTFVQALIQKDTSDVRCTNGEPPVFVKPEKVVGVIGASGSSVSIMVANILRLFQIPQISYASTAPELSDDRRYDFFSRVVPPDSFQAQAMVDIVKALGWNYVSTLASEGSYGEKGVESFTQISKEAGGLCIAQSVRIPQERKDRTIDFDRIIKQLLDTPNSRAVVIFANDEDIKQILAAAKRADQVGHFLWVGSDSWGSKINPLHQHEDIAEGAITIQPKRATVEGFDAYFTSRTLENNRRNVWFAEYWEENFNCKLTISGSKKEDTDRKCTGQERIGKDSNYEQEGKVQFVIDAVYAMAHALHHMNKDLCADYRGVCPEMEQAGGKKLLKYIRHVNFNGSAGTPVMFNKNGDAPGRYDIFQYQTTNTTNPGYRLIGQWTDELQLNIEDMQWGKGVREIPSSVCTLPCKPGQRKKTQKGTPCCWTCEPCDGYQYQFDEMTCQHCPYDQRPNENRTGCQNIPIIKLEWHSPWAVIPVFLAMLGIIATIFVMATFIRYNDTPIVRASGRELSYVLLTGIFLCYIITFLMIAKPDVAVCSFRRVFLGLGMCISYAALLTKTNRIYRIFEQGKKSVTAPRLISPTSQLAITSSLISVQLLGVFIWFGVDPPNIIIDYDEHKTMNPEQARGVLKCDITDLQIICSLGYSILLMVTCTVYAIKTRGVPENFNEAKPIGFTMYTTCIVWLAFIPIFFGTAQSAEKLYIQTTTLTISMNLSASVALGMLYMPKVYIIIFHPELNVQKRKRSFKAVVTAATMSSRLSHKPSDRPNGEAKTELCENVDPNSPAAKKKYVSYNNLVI
UniProt Q9EP80: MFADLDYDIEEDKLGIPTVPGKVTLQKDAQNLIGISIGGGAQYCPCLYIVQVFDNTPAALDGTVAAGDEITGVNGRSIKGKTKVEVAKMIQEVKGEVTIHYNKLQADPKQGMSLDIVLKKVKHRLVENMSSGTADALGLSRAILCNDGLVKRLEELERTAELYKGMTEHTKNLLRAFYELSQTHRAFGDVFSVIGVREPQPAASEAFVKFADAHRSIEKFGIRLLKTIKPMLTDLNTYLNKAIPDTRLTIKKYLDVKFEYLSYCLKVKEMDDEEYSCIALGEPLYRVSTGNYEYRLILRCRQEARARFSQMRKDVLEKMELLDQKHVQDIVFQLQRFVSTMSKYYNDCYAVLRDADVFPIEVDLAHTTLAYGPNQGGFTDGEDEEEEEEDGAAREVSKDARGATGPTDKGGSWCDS
UniProt Q62083: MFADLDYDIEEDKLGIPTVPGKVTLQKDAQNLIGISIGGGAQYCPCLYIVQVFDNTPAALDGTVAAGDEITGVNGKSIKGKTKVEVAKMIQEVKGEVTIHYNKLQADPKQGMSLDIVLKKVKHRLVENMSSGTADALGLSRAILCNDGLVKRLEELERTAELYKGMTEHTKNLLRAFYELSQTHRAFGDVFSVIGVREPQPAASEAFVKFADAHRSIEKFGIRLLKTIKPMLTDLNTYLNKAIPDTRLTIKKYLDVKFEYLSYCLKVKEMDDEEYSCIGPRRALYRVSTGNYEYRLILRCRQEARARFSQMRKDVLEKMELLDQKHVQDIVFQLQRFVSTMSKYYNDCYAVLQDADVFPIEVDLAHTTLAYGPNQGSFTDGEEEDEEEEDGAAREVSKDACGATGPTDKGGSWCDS

Assay [5] addresses GFP-PICK1 (Protein Interacting with C Kinase 1, GFP-tagged) (UniProt Q9EP80). Kind of assay: co-IP.
Assay [6] shares this target. Kind of assay: co-IP. The source holds these as a separate data set.
Assay [7] addresses T1, mGlu3-SSL peptide (synthetic peptide of the C-terminal domain of the mGlu3 receptor, wild type) (mouse). Kind of assay: pull-down. The source holds these as a separate data set.

Where two headings read alike, the source gives them in different places. Results are given in words; binding and its absence hold for the method and conditions named. In cells and extracts the contact can be indirect. Some results given as binding are weak or reduced against the parent protein; the word gives no strength.

For the substance “GFP-PICK1 (Protein Interacting with C Kinase 1, GFP-tagged) (from UniProt Q9EP80 1-416)”, the binding entry in assay [1] is on record as “binds”; in assay [2], “no binding”; in assay [3] it was “binds”; in assay [4] it was “binds”.

For “HA-mGlu3 (mGlu3 receptor bearing an HA tag in the extracellular N-terminal domain) (from UniProt P31422 23-879)”, the binding entry in assay [5] and in assay [6] was “binds” each time.

With “native PICK1 expressed in mouse brain (from UniProt Q62083 1-416)”, the binding result in assay [7] and in assay [4] was “binds” throughout.

These data come from paper doi:10.1101/2021.11.19.469240.
